{"source": "PubChem BioAssay AID1053208 – Peter MacCallum Cancer Centre, 2014", "screen": "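Find knock-downs that sensitise mouse osteosarcoma cells to doxorubicin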 (primary screen)", "cells": "mouse osteosarcoma cells, early-passage culture from an engineered mouse model of fibroblastic bone tumour", "reagents": "siRNA pool against mouse genes, 40 nM", "timing": "about 120 h (48 h before drug, then 72 h with drug)", "conditions": "doxorubicin 100 nM for 72 h, roughly 30-40% inhibitory dose", "read-out": "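Luminescent ATP signal taken as viability with or without 100 nM doxorubicin for 72 h; mean of two wells set against non-targeting siRNA and turned into robust z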", "direction": "viability z-score with doxorubicin: higher = more viable cells under doxorubicin; viability z-score without drug: higher = more viable cells with knock-down alone", "hit rule": "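a pool counts as active when its viability z-score with doxorubicin is -2 or below and its z-score without drug lies between -2 and 2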", "note": "The deposit covers about 17,000 reagents; shown is an unselected part. Of all reagents, 788 (4.7%) were called active. 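Calls rest on z-score classes alone; an extra cut-off of viability at most 70% of control was not applied to them.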 The numbers tell different reagents against one gene apart. Not all columns of the deposit are shown."}
{"target": "Ppp1r2-ps9", "pool no.": 1, "combined z-score class": "no change with or without drug", "viability z-score with doxorubicin": -1.35, "viability z-score without drug": -0.17, "outcome": "inactive"}
{"target": "Zfp92", "pool no.": 1, "combined z-score class": "no change with or without drug", "viability z-score with doxorubicin": 0.9, "viability z-score without drug": 0.67, "outcome": "inactive"}
{"target": "Gsx1", "pool no.": 1, "combined z-score class": "no change with or without drug", "viability z-score with doxorubicin": -0.22, "viability z-score without drug": -0.84, "outcome": "inactive"}
{"target": "Rit1", "pool no.": 1, "combined z-score class": "high cell count without drug only", "viability z-score with doxorubicin": 1.69, "viability z-score without drug": 2.02, "outcome": "inactive"}
{"target": "Col8a2", "pool no.": 1, "combined z-score class": "no change with or without drug", "viability z-score with doxorubicin": 0.45, "viability z-score without drug": 1.69, "outcome": "inactive"}
{"target": "Eya1", "pool no.": 1, "combined z-score class": "no change with or without drug", "viability z-score with doxorubicin": 1.01, "viability z-score without drug": 0.51, "outcome": "inactive"}
{"target": "Dnmbp", "pool no.": 1, "combined z-score class": "no change with or without drug", "viability z-score with doxorubicin": 1.35, "viability z-score without drug": 0.51, "outcome": "inactive"}
{"target": "Srpk3", "pool no.": 1, "combined z-score class": "no change with or without drug", "viability z-score with doxorubicin": 0, "viability z-score without drug": -1.69, "outcome": "inactive"}
{"target": "Sgo1", "pool no.": 1, "combined z-score class": "low cell count without drug only", "viability z-score with doxorubicin": -1.35, "viability z-score without drug": -2.53, "outcome": "inactive"}
{"target": "Cyb5a", "pool no.": 1, "combined z-score class": "no change with or without drug", "viability z-score with doxorubicin": 0.56, "viability z-score without drug": -1.18, "outcome": "inactive"}
{"target": "H2-T22", "pool no.": 1, "combined z-score class": "no change with or without drug", "viability z-score with doxorubicin": 0, "viability z-score without drug": 0.17, "outcome": "inactive"}
{"target": "H2-T22", "pool no.": 2, "combined z-score class": "low cell count with doxorubicin only", "viability z-score with doxorubicin": -2.47, "viability z-score without drug": -0.17, "outcome": "active"}
{"target": "H2-T22", "pool no.": 3, "combined z-score class": "no change with or without drug", "viability z-score with doxorubicin": 0.34, "viability z-score without drug": -0.17, "outcome": "inactive"}
{"target": "Cacna2d1", "pool no.": 1, "combined z-score class": "no change with or without drug", "viability z-score with doxorubicin": 1.01, "viability z-score without drug": 0.34, "outcome": "inactive"}
{"target": "Mid2", "pool no.": 1, "combined z-score class": "no change with or without drug", "viability z-score with doxorubicin": 1.57, "viability z-score without drug": 1.18, "outcome": "inactive"}
{"target": "Mindy2", "pool no.": 1, "combined z-score class": "no change with or without drug", "viability z-score with doxorubicin": -1.35, "viability z-score without drug": -0.51, "outcome": "inactive"}
{"target": "4921517D22Rik", "pool no.": 1, "combined z-score class": "no change with or without drug", "viability z-score with doxorubicin": 0.9, "viability z-score without drug": 1.18, "outcome": "inactive"}
{"target": "Dlg3", "pool no.": 1, "combined z-score class": "high cell count without drug only", "viability z-score with doxorubicin": 1.12, "viability z-score without drug": 3.37, "outcome": "inactive"}
{"target": "Mc2r", "pool no.": 1, "combined z-score class": "no change with or without drug", "viability z-score with doxorubicin": 0.56, "viability z-score without drug": 1.35, "outcome": "inactive"}
{"target": "Or5b12", "pool no.": 1, "combined z-score class": "no change with or without drug", "viability z-score with doxorubicin": -1.69, "viability z-score without drug": -0.51, "outcome": "inactive"}
{"target": "Hltf", "pool no.": 1, "combined z-score class": "low cell count without drug only", "viability z-score with doxorubicin": -1.35, "viability z-score without drug": -2.02, "outcome": "inactive"}
{"target": "Frmd8", "pool no.": 1, "combined z-score class": "no change with or without drug", "viability z-score with doxorubicin": -1.8, "viability z-score without drug": 1.35, "outcome": "inactive"}
{"target": "Esx1", "pool no.": 1, "combined z-score class": "no change with or without drug", "viability z-score with doxorubicin": -0.22, "viability z-score without drug": 0.17, "outcome": "inactive"}
{"target": "Mcm3ap", "pool no.": 1, "combined z-score class": "no change with or without drug", "viability z-score with doxorubicin": -1.8, "viability z-score without drug": -1.01, "outcome": "inactive"}
{"target": "Trp53rka", "pool no.": 1, "combined z-score class": "no change with or without drug", "viability z-score with doxorubicin": 0.11, "viability z-score without drug": -0.84, "outcome": "inactive"}
{"target": "Tmem143", "pool no.": 1, "combined z-score class": "no change with or without drug", "viability z-score with doxorubicin": 0.22, "viability z-score without drug": 0.17, "outcome": "inactive"}
{"target": "Fam135b", "pool no.": 1, "combined z-score class": "no change with or without drug", "viability z-score with doxorubicin": 0.34, "viability z-score without drug": 0.34, "outcome": "inactive"}
{"target": "Fam135b", "pool no.": 2, "combined z-score class": "no change with or without drug", "viability z-score with doxorubicin": -1.01, "viability z-score without drug": -1.18, "outcome": "inactive"}
{"target": "Actr10", "pool no.": 1, "combined z-score class": "no change with or without drug", "viability z-score with doxorubicin": 0, "viability z-score without drug": 0.17, "outcome": "inactive"}
{"target": "Tsr3", "pool no.": 1, "combined z-score class": "no change with or without drug", "viability z-score with doxorubicin": 0, "viability z-score without drug": 1.52, "outcome": "inactive"}
{"target": "Stub1", "pool no.": 1, "combined z-score class": "no change with or without drug", "viability z-score with doxorubicin": 1.12, "viability z-score without drug": 1.18, "outcome": "inactive"}
{"target": "Trmt10a", "pool no.": 1, "combined z-score class": "no change with or without drug", "viability z-score with doxorubicin": -0.9, "viability z-score without drug": -1.18, "outcome": "inactive"}
{"target": "Zfp956", "pool no.": 1, "combined z-score class": "no change with or without drug", "viability z-score with doxorubicin": 0.9, "viability z-score without drug": 1.52, "outcome": "inactive"}
{"target": "Clec11a", "pool no.": 1, "combined z-score class": "no change with or without drug", "viability z-score with doxorubicin": 0, "viability z-score without drug": -0.34, "outcome": "inactive"}
{"target": "Tspan15", "pool no.": 1, "combined z-score class": "no change with or without drug", "viability z-score with doxorubicin": -0.22, "viability z-score without drug": -0.84, "outcome": "inactive"}
{"target": "Dgcr2", "pool no.": 1, "combined z-score class": "no change with or without drug", "viability z-score with doxorubicin": 1.35, "viability z-score without drug": -0.34, "outcome": "inactive"}

6 entries from above, set out differently.
| target | pool no. | combined z-score class | viability z-score with doxorubicin | viability z-score without drug | outcome |
| --- | --- | --- | --- | --- | --- |
| Cyb5a | 1 | no change with or without drug | 0.56 | -1.18 | inactive |
| H2-T22 | 1 | no change with or without drug | 0 | 0.17 | inactive |
| H2-T22 | 2 | low cell count with doxorubicin only | -2.47 | -0.17 | active |
| H2-T22 | 3 | no change with or without drug | 0.34 | -0.17 | inactive |
| Cacna2d1 | 1 | no change with or without drug | 1.01 | 0.34 | inactive |
| Mid2 | 1 | no change with or without drug | 1.57 | 1.18 | inactive |
